Measurements reported in PubChem BioAssay AID1671195 (Yale University, 2021)
The whole screen tested about 22,000 reagents; shown is a random part of them. About 1,510 of all reagents (6.9%) count as active. 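Active includes knockdowns raising or lowering LDL uptake; positive z-scores mean more uptake, negative mean less.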

- Assay: 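Knockdowns that increase or decrease uptake of fluorescent LDL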 (primary screen)
- System: human Huh7 hepatoma cells
- Knock-down reagent: siRNA pool against human genes, 18 nM
- Duration: about 2 to 2.5 days of knockdown, then 8 h LDL uptake
- Challenge: DiI-labelled LDL at 30 µg/ml for 8 h, in lipoprotein-deficient serum medium
- Read-out: 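Per-cell DiI-LDL intensity by automated imaging; well means scaled to the plate median and given as a robust z-score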
- Reading the numbers: robust z-score: higher = more LDL uptake after knockdown
- Rule for the call: 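a gene counts as active if at least two replicate z-scores exceed ±2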

For GKAP1 the deposit lists robust z-score, replicate 1 = -0.915; robust z-score, replicate 2 = 0.0363; robust z-score, replicate 3 = 0.0106; inactive.
Against NAP1L4, the entry reads robust z-score, replicate 1 = -0.813; robust z-score, replicate 2 = -0.805; robust z-score, replicate 3 = -0.59; inactive.
For ANKRD18DP, the entry reads robust z-score, replicate 1 = -0.57; robust z-score, replicate 2 = -0.0316; robust z-score, replicate 3 = -0.461; inactive.
Silencing of SGSM2 came out at: robust z-score, replicate 1 = -0.0952; robust z-score, replicate 2 = 0.458; robust z-score, replicate 3 = -1.4; inactive.
With knock-down of C11orf42 the results were robust z-score, replicate 1 = -1.95; robust z-score, replicate 2 = -0.692; robust z-score, replicate 3 = -1.8; inactive.
ARL1 gave robust z-score, replicate 1 = 1.11; robust z-score, replicate 2 = 0.803; robust z-score, replicate 3 = 0.677; inactive.
After knock-down of AIF1, the record shows robust z-score, replicate 1 = -0.388; robust z-score, replicate 2 = -0.222; robust z-score, replicate 3 = -0.409; inactive.
Knock-down of RYR1 came out at: robust z-score, replicate 1 = 1.95; robust z-score, replicate 2 = 1.32; robust z-score, replicate 3 = 1.84; inactive.
With knock-down of MOGS the results were robust z-score, replicate 1 = -0.0609; robust z-score, replicate 2 = 0.638; robust z-score, replicate 3 = 0.384; inactive.
For DEFB105A the deposit lists robust z-score, replicate 1 = -1.26; robust z-score, replicate 2 = -1.5; robust z-score, replicate 3 = -1.26; inactive.
LILRA2 scored robust z-score, replicate 1 = -0.0273; robust z-score, replicate 2 = -1.55; robust z-score, replicate 3 = -0.265; inactive.
SYK showed robust z-score, replicate 1 = -0.964; robust z-score, replicate 2 = -1.37; robust z-score, replicate 3 = -0.627; inactive.
Depletion of NBPF2P resulted in: robust z-score, replicate 1 = 0.603; robust z-score, replicate 2 = -0.244; robust z-score, replicate 3 = 0.899; inactive.
After knock-down of PRSS8, the record shows robust z-score, replicate 1 = -0.725; robust z-score, replicate 2 = -0.486; robust z-score, replicate 3 = -0.14; inactive.
Knock-down of RARA gave: robust z-score, replicate 1 = 1.13; robust z-score, replicate 2 = -1.02; robust z-score, replicate 3 = -0.0763; inactive.
Knock-down of CRISP3 resulted in: robust z-score, replicate 1 = 0.491; robust z-score, replicate 2 = 0.8; robust z-score, replicate 3 = 1.78; inactive.
